Test results published in publication PMC12486161.
Results are given in words; binding and its absence hold for the method and conditions named. In cells and extracts the contact can be indirect. Some results given as binding are weak or reduced against the parent protein; the word gives no strength.

Protein sequences, listed by entry. Tags and fused reporters are not part of them. Lines headed by an entry give the natural chain unless they say otherwise; changes in a name come on top.
UniProt Q99KQ4: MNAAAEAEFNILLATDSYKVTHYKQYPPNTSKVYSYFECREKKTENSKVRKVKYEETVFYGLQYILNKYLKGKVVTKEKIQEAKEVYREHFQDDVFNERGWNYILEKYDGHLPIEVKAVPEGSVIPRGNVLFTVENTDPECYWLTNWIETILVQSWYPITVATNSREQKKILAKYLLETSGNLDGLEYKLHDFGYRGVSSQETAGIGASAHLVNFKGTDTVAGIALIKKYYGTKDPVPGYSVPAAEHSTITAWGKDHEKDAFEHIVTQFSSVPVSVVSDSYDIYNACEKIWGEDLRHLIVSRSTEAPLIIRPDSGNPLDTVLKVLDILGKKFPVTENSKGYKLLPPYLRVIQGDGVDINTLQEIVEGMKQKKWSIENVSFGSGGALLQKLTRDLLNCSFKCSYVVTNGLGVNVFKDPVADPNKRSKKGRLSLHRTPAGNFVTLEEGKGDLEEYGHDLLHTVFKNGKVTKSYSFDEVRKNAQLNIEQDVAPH
UniProt Q9WVK8: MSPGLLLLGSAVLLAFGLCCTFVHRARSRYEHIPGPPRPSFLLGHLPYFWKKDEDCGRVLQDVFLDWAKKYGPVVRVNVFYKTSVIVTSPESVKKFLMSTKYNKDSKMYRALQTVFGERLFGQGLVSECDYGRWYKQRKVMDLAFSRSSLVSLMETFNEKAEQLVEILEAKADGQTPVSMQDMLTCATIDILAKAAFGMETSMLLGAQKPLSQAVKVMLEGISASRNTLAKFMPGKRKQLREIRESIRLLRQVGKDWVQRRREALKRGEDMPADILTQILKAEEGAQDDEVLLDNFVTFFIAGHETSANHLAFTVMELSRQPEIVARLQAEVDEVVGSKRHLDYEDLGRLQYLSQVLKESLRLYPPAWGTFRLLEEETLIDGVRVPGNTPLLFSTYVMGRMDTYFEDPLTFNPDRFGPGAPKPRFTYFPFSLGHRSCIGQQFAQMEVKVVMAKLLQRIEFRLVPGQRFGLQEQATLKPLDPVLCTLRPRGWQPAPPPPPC
UniProt Q99MQ3: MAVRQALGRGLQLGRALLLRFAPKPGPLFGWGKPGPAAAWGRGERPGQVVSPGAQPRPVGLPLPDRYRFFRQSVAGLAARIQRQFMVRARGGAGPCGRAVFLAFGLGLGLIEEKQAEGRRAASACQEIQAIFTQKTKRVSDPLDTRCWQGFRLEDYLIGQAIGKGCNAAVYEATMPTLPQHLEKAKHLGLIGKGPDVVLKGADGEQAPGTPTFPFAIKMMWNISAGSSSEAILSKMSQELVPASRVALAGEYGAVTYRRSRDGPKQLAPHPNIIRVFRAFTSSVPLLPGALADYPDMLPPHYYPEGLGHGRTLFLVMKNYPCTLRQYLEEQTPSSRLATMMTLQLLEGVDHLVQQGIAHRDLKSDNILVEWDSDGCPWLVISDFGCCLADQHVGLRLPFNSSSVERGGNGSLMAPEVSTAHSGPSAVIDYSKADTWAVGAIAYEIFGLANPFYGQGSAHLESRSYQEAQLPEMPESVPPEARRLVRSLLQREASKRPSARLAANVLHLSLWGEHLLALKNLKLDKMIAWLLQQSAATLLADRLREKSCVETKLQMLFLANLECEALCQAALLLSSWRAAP

How the values were obtained:
[1] = biological target: Nicotinamide phosphoribosyltransferase (NAMPT) in HT22 cells and primary mouse neurons (mouse (endogenous in HT22 and primary C57BL/6 neurons)) (UniProt Q99KQ4); assay: co-IP; HT22 cells, untreated or treated with Abeta25-35 (20 uM) and cholesterol complex (50 ug/ml cholesterol), with or without Alisol A (10 uM); lysate precipitated with anti-NAMPT antibody and protein A/G magnetic beads, IgG as control; blots with anti-SIRT1, anti-CYP46A1, anti-PINK1
[2] = biological target: Nicotinamide phosphoribosyltransferase (NAMPT) in HT22 cells and primary mouse neurons (mouse (endogenous in HT22 and primary C57BL/6 neurons)) (UniProt Q99KQ4); assay: co-IP; primary mouse neurons, untreated or treated with ox-LDL (70 ug/ml), with or without Alisol A; lysate precipitated with anti-NAMPT antibody and protein A/G magnetic beads, IgG as control; blots with anti-SIRT1, anti-CYP46A1, anti-PINK1

binding [1]	binding [2]	Substance
binds	binds	Cholesterol 24-hydroxylase (CYP46A1) (from UniProt Q9WVK8 1-500) (enzyme)
binds	binds	PTEN-induced kinase 1 (PINK1) (from UniProt Q99MQ3 78-580) (enzyme)
